Measurements: the supplement of paper PMC8728848
The list shows a part of the results.

What was measured:
Assay in all cases: glycan array binding signal (z-score within array); higher = stronger binding
Conditions in all cases: glycan notation: IUPAC condensed, linker removed
[1] = biological target: Fuc(a1-2)[Gal(a1-3)]Gal(b1-4)GlcNAc(b1-2)Man(a1-3)[Fuc(a1-2)[Gal(a1-3)]Gal(b1-4)GlcNAc(b1-2)Man(a1-6)]Man(b1-4)GlcNAc(b1-4)GlcNAc
How it was run: (§1)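 The binding signal is a Z-score computed within each array. Data were drawn from 3228 arrays in the Consortium for Functional Glycomics database, restricted to those with a known protein sequence. Scores were averaged over arrays of the same protein sequence at different concentrations or buffers, and over linkers, and negative values can be taken as non-binding.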

[2] = biological target: Fuc(a1-2)[Gal(a1-3)]Gal(b1-4)GlcNAc(b1-2)Man(a1-3)[Fuc(a1-2)[Gal(a1-3)]Gal(b1-4)GlcNAc(b1-2)Man(a1-6)]Man(b1-4)GlcNAc(b1-4)[Fuc(a1-6)]GlcNAc
How it was run: as §1

[3] = biological target: Fuc(a1-2)[Gal(a1-3)]Gal(b1-4)GlcNAc(b1-3)GalNAc
How it was run: as §1

[4] = biological target: Fuc(a1-2)[Gal(a1-3)]Gal(b1-4)GlcNAc(b1-3)[Fuc(a1-2)[Gal(a1-3)]Gal(b1-4)GlcNAc(b1-6)]GalNAc
How it was run: as §1

[5] = biological target: Fuc(a1-2)[Gal(a1-3)]Gal(b1-4)GlcNAc(b1-6)GalNAc
How it was run: as §1

[6] = biological target: Fuc(a1-2)[Gal(a1-3)]Gal(b1-4)[Fuc(a1-3)]Glc
How it was run: as §1

[7] = biological target: Fuc(a1-2)[Gal(a1-3)]Gal(b1-4)[Fuc(a1-3)]GlcNAc
How it was run: as §1

[8] = biological target: Fuc(a1-2)[Gal(a1-3)]Gal(b1-4)[Fuc(a1-3)]GlcNAc(b1-3)GalNAc
How it was run: as §1

[9] = biological target: Fuc(a1-2)[Gal(a1-4)]Gal(b1-4)GlcNAc
How it was run: as §1

[10] = biological target: Fuc(a1-2)[GalNAc(a1-3)]Gal
How it was run: as §1

[11] = biological target: Fuc(a1-2)[GalNAc(a1-3)]Gal(b1-3)GalNAc(a1-3)[Fuc(a1-2)]Gal(b1-4)GlcNAc
How it was run: as §1

[12] = biological target: Fuc(a1-2)[GalNAc(a1-3)]Gal(b1-3)GalNAc(b1-3)Gal(a1-4)Gal(b1-4)Glc
How it was run: as §1

[13] = biological target: Fuc(a1-2)[GalNAc(a1-3)]Gal(b1-3)GlcNAc
How it was run: as §1

[14] = biological target: Fuc(a1-2)[GalNAc(a1-3)]Gal(b1-3)GlcNAc(b1-2)Man(a1-3)[Fuc(a1-2)[GalNAc(a1-3)]Gal(b1-3)GlcNAc(b1-2)Man(a1-6)]Man(b1-4)GlcNAc(b1-4)GlcNAc
How it was run: as §1

[15] = biological target: Fuc(a1-2)[GalNAc(a1-3)]Gal(b1-3)GlcNAc(b1-2)Man(a1-3)[Fuc(a1-2)[GalNAc(a1-3)]Gal(b1-3)GlcNAc(b1-2)Man(a1-6)]Man(b1-4)GlcNAc(b1-4)[Fuc(a1-6)]GlcNAc
How it was run: as §1

[16] = biological target: Fuc(a1-2)[GalNAc(a1-3)]Gal(b1-3)GlcNAc(b1-3)GalNAc
How it was run: as §1

[17] = biological target: Fuc(a1-2)[GalNAc(a1-3)]Gal(b1-3)GlcNAc(b1-6)GalNAc
How it was run: as §1

[18] = biological target: Fuc(a1-2)[GalNAc(a1-3)]Gal(b1-4)Glc
How it was run: as §1

[19] = biological target: Fuc(a1-2)[GalNAc(a1-3)]Gal(b1-4)GlcNAc
How it was run: as §1

[20] = biological target: Fuc(a1-2)[GalNAc(a1-3)]Gal(b1-4)GlcNAc(b1-2)Man
How it was run: as §1

[21] = biological target: Fuc(a1-2)[GalNAc(a1-3)]Gal(b1-4)GlcNAc(b1-2)Man(a1-3)[Fuc(a1-2)[GalNAc(a1-3)]Gal(b1-4)GlcNAc(b1-2)Man(a1-6)]Man(b1-4)GlcNAc(b1-4)GlcNAc
How it was run: as §1

[22] = biological target: Fuc(a1-2)[GalNAc(a1-3)]Gal(b1-4)GlcNAc(b1-2)Man(a1-3)[Fuc(a1-2)[GalNAc(a1-3)]Gal(b1-4)GlcNAc(b1-2)Man(a1-6)]Man(b1-4)GlcNAc(b1-4)[Fuc(a1-6)]GlcNAc
How it was run: as §1

[23] = biological target: Fuc(a1-2)[GalNAc(a1-3)]Gal(b1-4)GlcNAc(b1-3)Gal(b1-4)GlcNAc
How it was run: as §1

[24] = biological target: Fuc(a1-2)[GalNAc(a1-3)]Gal(b1-4)GlcNAc(b1-3)Gal(b1-4)GlcNAc(b1-3)Gal(b1-4)GlcNAc
How it was run: as §1

[25] = biological target: Fuc(a1-2)[GalNAc(a1-3)]Gal(b1-4)GlcNAc(b1-3)GalNAc
How it was run: as §1

[26] = biological target: Fuc(a1-2)[GalNAc(a1-3)]Gal(b1-4)GlcNAc(b1-3)[Fuc(a1-2)[GalNAc(a1-3)]Gal(b1-4)GlcNAc(b1-6)]GalNAc
How it was run: as §1

[27] = biological target: Fuc(a1-2)[GalNAc(a1-3)]Gal(b1-4)GlcNAc(b1-6)GalNAc
How it was run: as §1

[28] = biological target: Fuc(a1-2)[GalNAc(a1-3)]Gal(b1-4)[Fuc(a1-3)]GlcNAc
How it was run: as §1

[29] = biological target: Fuc(a1-2)[GalNAc(a1-3)]Gal(b1-4)[Fuc(a1-3)]GlcNAc(b1-3)GalNAc
How it was run: as §1

[30] = biological target: Fuc(a1-2)[GalNAc(a1-4)]Gal(b1-4)GlcNAc
How it was run: as §1

[31] = biological target: Fuc(a1-2)[GalNAc(b1-3)]Gal
How it was run: as §1

Fuc(a1-3)GlcNAc = biological target: Fuc(a1-3)GlcNAc
How it was run: as §1

[32] = biological target: Fuc(a1-3)[Gal(b1-4)]Glc6S
How it was run: as §1

[33] = biological target: Fuc(a1-3)[Gal(b1-4)]GlcNAc
How it was run: as §1

[34] = biological target: Fuc(a1-3)[Gal(b1-4)]GlcNAc(b1-2)Man
How it was run: as §1

[35] = biological target: Fuc(a1-3)[Gal(b1-4)]GlcNAc(b1-2)Man(a1-3)[Fuc(a1-3)[Gal(b1-4)]GlcNAc(b1-2)Man(a1-6)]Man(b1-4)GlcNAc(b1-4)GlcNAc
How it was run: as §1

[36] = biological target: Fuc(a1-3)[Gal(b1-4)]GlcNAc(b1-2)Man(a1-3)[Fuc(a1-3)[Gal(b1-4)]GlcNAc(b1-2)Man(a1-6)]Man(b1-4)GlcNAc(b1-4)[Fuc(a1-6)]GlcNAc
How it was run: as §1

[37] = biological target: Fuc(a1-3)[Gal(b1-4)]GlcNAc(b1-3)Gal(b1-3)[Fuc(a1-4)]GlcNAc
How it was run: as §1

[38] = biological target: Fuc(a1-3)[Gal(b1-4)]GlcNAc(b1-3)Gal(b1-4)[Fuc(a1-3)]GlcNAc
How it was run: as §1

[39] = biological target: Fuc(a1-3)[Gal(b1-4)]GlcNAc(b1-3)Gal(b1-4)[Fuc(a1-3)]GlcNAc(b1-3)Gal(b1-4)[Fuc(a1-3)]GlcNAc
How it was run: as §1

[40] = biological target: Fuc(a1-3)[Gal(b1-4)]GlcNAc(b1-3)GalNAc
How it was run: as §1

[41] = biological target: Fuc(a1-3)[Gal(b1-4)]GlcNAc(b1-6)GalNAc
How it was run: as §1

[42] = biological target: Fuc(a1-3)[Gal(b1-4)]GlcNAc(b1-6)[Gal(b1-3)GlcNAc(b1-3)]Gal(b1-4)Glc
How it was run: as §1

[43] = biological target: Fuc(a1-3)[Gal(b1-4)]GlcNAc6S
How it was run: as §1

[44] = biological target: Fuc(a1-3)[Gal3S(b1-4)]Glc
How it was run: as §1

B1: LysMD3 (Homo sapiens), Q7Z3D4 (protein)
chain: MAGRHQNRSFPLPGVQSSGQVHAFGNCSDSDILEEDAEVYELRSRGKEKVRRSTSRDRLDDIIVLTKDIQEGDTLNAIALQYCCTVADIKRVNNLISDQDFFALRSIKIPVKKFSSLTETLCPPKGRQTSRHSSVQYSSEQQEILPANDSLAYSDSAGSFLKEVDRDIEQIVKCTDNKRENLNEVVSALTAQQMRFEPDNKNTQRKDPYYGADWGIG
[1]
  glycan array binding signal (z-score): -0.935
[2]
  glycan array binding signal (z-score): 0.656
[3]
  glycan array binding signal (z-score): -1.51
[4]
  glycan array binding signal (z-score): 1.06
[5]
  glycan array binding signal (z-score): -1.15
[6]
  glycan array binding signal (z-score): -0.197
[7]
  glycan array binding signal (z-score): 1.03
[8]
  glycan array binding signal (z-score): 0.057
[9]
  glycan array binding signal (z-score): 2.84
[10]
  glycan array binding signal (z-score): 0.956
[11]
  glycan array binding signal (z-score): -1.31
[12]
  glycan array binding signal (z-score): 0.188
[13]
  glycan array binding signal (z-score): 1.15
[14]
  glycan array binding signal (z-score): -1.02
[15]
  glycan array binding signal (z-score): -0.281
[16]
  glycan array binding signal (z-score): 0.102
[17]
  glycan array binding signal (z-score): -0.837
[18]
  glycan array binding signal (z-score): 0.81
[19]
  glycan array binding signal (z-score): 0.896
[20]
  glycan array binding signal (z-score): 0.406
[21]
  glycan array binding signal (z-score): -0.764
[22]
  glycan array binding signal (z-score): 0.075
[23]
  glycan array binding signal (z-score): 0.058
[24]
  glycan array binding signal (z-score): 0.211
[25]
  glycan array binding signal (z-score): -0.457
[26]
  glycan array binding signal (z-score): 0.331
[27]
  glycan array binding signal (z-score): -0.259
[28]
  glycan array binding signal (z-score): 0.368
[29]
  glycan array binding signal (z-score): -0.994
[30]
  glycan array binding signal (z-score): 1.49
[31]
  glycan array binding signal (z-score): 1.47
Fuc(a1-3)GlcNAc
  glycan array binding signal (z-score): 1.14
[32]
  glycan array binding signal (z-score): -0.469
[33]
  glycan array binding signal (z-score): 1.08
[34]
  glycan array binding signal (z-score): -0.772
[35]
  glycan array binding signal (z-score): 0.287
[36]
  glycan array binding signal (z-score): 0.362
[37]
  glycan array binding signal (z-score): -0.674
[38]
  glycan array binding signal (z-score): 0.881
[39]
  glycan array binding signal (z-score): -0.28
[40]
  glycan array binding signal (z-score): -0.129
[41]
  glycan array binding signal (z-score): 0.492
[42]
  glycan array binding signal (z-score): -0.11
[43]
  glycan array binding signal (z-score): -0.856
[44]
  glycan array binding signal (z-score): 0.118
